For the assay, the target named is T1, CMTM6-HA (UniProt Q9NX76).
T1 sequence: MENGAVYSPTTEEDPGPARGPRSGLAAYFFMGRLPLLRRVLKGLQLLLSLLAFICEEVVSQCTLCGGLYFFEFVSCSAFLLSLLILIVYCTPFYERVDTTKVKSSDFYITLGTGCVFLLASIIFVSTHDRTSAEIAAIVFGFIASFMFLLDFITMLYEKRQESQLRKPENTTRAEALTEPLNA
Nature of the assay: co-IP; HCT116 cells coexpressing CMTM6-HA and Rab11-FLAG; lysis buffer with 0.5% NP-40; anti-HA (12CA5) antibody and Protein G Sepharose beads pull down CMTM6-HA; WB for Glut1 and Rab11-FLAG.

No constants are given. Whether binding was seen depends on the method and setting. In cells and extracts the contact can be indirect. Binding can be weak; no strength is given. Tags and fused reporters may be left off the sequences shown.

Regarding Rab11-FLAG, the binding result is reported as “binds”.

(Values after publication PMC11447025.)
